# Data published in patent publication US20050055741, “Plant transcriptional repressor, proteic nuclear factors binding thereto, and uses thereof” (published 2005).
# For some of these results: Weaker means in comparison with the reference protein, sequence or condition of that experiment. Tags and fusion partners may be left off the protein sequences shown. For some of these results: Results from cells or extracts need not show a direct contact. For some of these results: Negatives hold for the conditions tested.
# Columns and labels:
# Assay in all cases: EMSA
# [1] = test system: T1, SEBF (400 mM Q-Sepharose fraction) (Solanum tuberosum); conditions: protein in an extract, label: 32P, single-stranded DNA
# T1 sequence: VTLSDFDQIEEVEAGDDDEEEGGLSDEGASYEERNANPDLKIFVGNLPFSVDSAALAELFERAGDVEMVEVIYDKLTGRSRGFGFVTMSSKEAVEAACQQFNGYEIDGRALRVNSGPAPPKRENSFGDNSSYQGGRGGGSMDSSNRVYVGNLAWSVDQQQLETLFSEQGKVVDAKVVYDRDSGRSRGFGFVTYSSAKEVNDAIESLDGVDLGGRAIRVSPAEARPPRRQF
# [2] = test system: T2, SEBF (native, crude nuclear extract) (Solanum tuberosum); conditions: protein in an extract
# T2 sequence: T1 sequence
# [3] = test system: T3, SEBF (recombinant) (Solanum tuberosum); conditions: purified recombinant protein, label: 32P, single-stranded DNA, variant of PR-10a SE coding strand WT
# T3 sequence (limits assumed): T1 sequence
# [4] = mutation outside site, not affected, label: 32P, single-stranded DNA, variant of SE WT (fine mapping)
# [5] = specificity stated similar to native SEBF
# [6] = significantly reduced, label: 32P, single-stranded DNA, variant of PR-10a SE coding strand WT
# [7] = dramatically reduced, label: 32P, single-stranded DNA, variant of SE WT (fine mapping)
sequence,measurement,setting,value
AACATCTGCTTTGTCACCCTCCTTG [ChtC2 chitinase oligo],binding result,[1],binds
ATTAAGCCATGTCTCCATCATCTTC [CHN50 chitinase oligo],binding result,[1],binds
CATGGACTGTCACTTGTTTTTTTTA [SE m2],binding result,"[2]; slight increase vs WT, label: 32P, single-stranded DNA, variant of PR-10a SE coding strand WT",binds
TAAGCCATATCTCCATCATCT [CHN50 M2],binding result,"[1]; M2 abolishes binding, variant of CHN50 WT (FIG. 12)",no binding
TAAGCCATGTCTCCATCATCT [CHN50 WT (FIG. 12)],binding result,[1],binds
TCGCGACTGTCACTTGTTTTTTTT [SE m6],binding result,[2]; [4],binds
TCTAGAAGATCACTTGTTTTTTTTA [SE m3],binding result,[3]; [5],binds more weakly
same,binding result,[2]; [6],binds more weakly
TCTAGAAGGTCACTTGTTTTTTTT [SE m8],binding result,[2]; [7],binds more weakly
TCTAGAATGTCACTTGTTTTTTTT [SE m13],binding result,"[2]; first C to A reduces binding, label: 32P, single-stranded DNA, variant of SE WT (fine mapping)",binds more weakly
TCTAGACGGTCACTTGTTTTTTTT [SE m14],binding result,[2]; [7],binds more weakly
TCTAGACTACCACTTGTTTTTTTT [SE m9],binding result,[2]; [7],binds more weakly
TCTAGACTATCACTTGTTTTTTTT [SE m15],binding result,[2]; [7],binds more weakly
TCTAGACTGACACTTGTTTTTTTT [SE m16],binding result,[2]; [7],binds more weakly
TCTAGACTGTCAAGTGTTTTTTTT [SE m11],binding result,[2]; [7],binds more weakly
TCTAGACTGTCACAACTTTTTTTTA [SE m5],binding result,[3]; [5],binds more weakly
same,binding result,"[2]; slight decrease, label: 32P, single-stranded DNA, variant of PR-10a SE coding strand WT",binds more weakly
TCTAGACTGTCACGTGTTTTTTTT [SE m20],binding result,[2]; [4],binds
TCTAGACTGTCACTGTTTTTTTTT [SE m12],binding result,"[2]; not affected, label: 32P, single-stranded DNA, variant of SE WT (fine mapping)",binds
TCTAGACTGTCACTTGTTTTTTTT [SE WT (fine mapping)],binding result,"[2]; label: 32P, single-stranded DNA",binds
TCTAGACTGTCACTTGTTTTTTTTA (double strand) [PR-10a SE double-stranded],binding result,"[2]; label: 32P on non-coding strand, variant of PR-10a SE coding strand WT",no binding
TCTAGACTGTCACTTGTTTTTTTTA [PR-10a SE coding strand WT],binding result,"[2]; poly(dI-dC), 200 mM NaCl, Tris pH 7.5, EDTA, on ice, label: 32P, single-stranded DNA",binds
TCTAGACTGTCACTTGTTTTTTTTA [PR-10a oligo (FIG. 9)],binding result,[1],binds
TCTAGACTGTCGAGTGTTTTTTTTA [SE m4],binding result,[3]; less affinity than WT,binds more weakly
same,binding result,[2]; [6],binds more weakly
TCTAGACTGTGACTTGTTTTTTTT [SE m17],binding result,[2]; [7],binds more weakly
TCTAGATCGAATTCCGCTCGACCGG [SE m1],binding result,"[2]; binding completely abolished, label: 32P, single-stranded DNA, variant of PR-10a SE coding strand WT",no binding
TCTATCCTGTCACTTGTTTTTTTT [SE m7],binding result,[2]; [4],binds
